Values are the deposited “Percent Effect”, in %.
The controls that fix the scale are not given in the record; negative values are as filed.
Compounds were drawn at random from those tested, without regard to their results.
Two or more numbers in one place are separate tests of the same structure; such repeats can differ widely.

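Viability assay of Plasmodium falciparum sporozoites; the read-out is not stated. The concentration is filed as 10 mM, unlikely as a test dose, so the dose is not known. Direction is inferred from retests: higher values go with lower viability. Strong results were mostly tested again. Size under these conditions: about 34,000 compounds, about 280 of them at 50% or above in at least one test.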

structure,effect
CO[C@H]1CO[C@@]2(CCCN(C(=O)C3CC=CC3)C2)C1,0.8914
COc1ccccc1N1CCC(CNCc2cccc(O)c2)C1 (stereo not given),16.32
Cc1cc(C)n(CC2CCCN2CCCS(C)(=O)=O)n1 (stereo not given),4.962
O=C(O)C(F)(F)F.[H][C@]12CCN(C(=O)c3ccc4[nH]ccc4c3)C[C@@]1([H])OCCN(CC1CC1)C2,-14.91
Cc1ccccc1C(=O)NCc1ccc(N2CCNC(=O)C2)cc1,-5.765
O=C(c1ccc(-n2cnnc2)cc1)N1CCCC(n2ccnc2)C1 (stereo not given),10.89
CN1C[C@@H](C(=O)N2CCOCC2)[C@@]2(CCc3ccccc3C(=O)N2)C1,-1.963
COc1ccc(Cl)cc1C(C(=O)O)N1CCSCC1 (stereo not given),-3.374
Cc1ccc(NS(=O)(=O)CC2=NC(=O)n3cccc3C2=O)cc1,2.851
CN1C(=O)CC(c2cnn(C)c2)C12CCN(CC1CCOCC1)CC2.O=C(O)C(F)(F)F (stereo not given),5.692
Cc1noc(C)c1-c1nc(C2CCCNC2)ccc1CO.Cl.Cl (stereo not given),-7.946
Cc1noc(C2CCCN(Cn3cc(Cl)cn3)C2)n1 (stereo not given),-5.104
CCOC(=O)[C@@H]1[C@@H](O)C(=O)N(C)C12CCN(C(=O)c1ccco1)CC2,7.177
Cc1ccnc(C2CCCN2C(=O)c2cnccn2)n1 (stereo not given),14.19
Cc1ccc2c(c1)C1(CCNCC1)CN2C(=O)CN(C)C.O=C(O)C(F)(F)F.O=C(O)C(F)(F)F,3.429
COc1cccc(C2CCCN2C(=O)NCCCn2cccn2)c1 (stereo not given),0.9804
Cn1cccc1C1CCCN1Cc1noc(C(C)(C)C)n1 (stereo not given),2.686
CN1CC(=O)N(c2ccccc2)CC12CCN(Cc1nccs1)C2.O=C(O)C(F)(F)F.O=C(O)C(F)(F)F (stereo not given),-3.139
Cc1[nH]c2c(F)cccc2c1CC(=O)NC1CCCCNC1=O (stereo not given),4.931
O=C(NCCSCc1cccs1)C1CCCN(C(=O)N2CCCC2)C1 (stereo not given),-11.72
Cc1ccc(N2CCCN(C(=O)C3(C#N)CCCCC3)CC2)nn1,2.803
CC(C)(C)c1c[nH]c([C@@H]2COCCN2C2CCOCC2)n1,1.875 and 0.4454
C[C@]1(O)CCN(Cc2ncccc2F)C[C@@H]1Oc1ccccc1,3.895
COc1cccc(C(=O)NS(=O)(=O)c2cc(Cl)sc2Cl)c1OC(F)F,-7.108
Cc1nc[nH]c1CN1CCCn2nc(CN3CCC(F)(F)CC3)cc2C1,-3.122
Cn1cc(C(=O)N2CCCC2c2noc(C3CC3)n2)c2ccccc21 (stereo not given),11.34 and 16.24 and 10.7
O=C(NCC1CCCO1)c1ccc(S(=O)(=O)NCCc2cn[nH]c2)cc1 (stereo not given),-35.54
Cc1nc(C)c(CC(=O)Nc2nnc(C(C)C)s2)c(=O)[nH]1,5.224
Cc1ccc(NC2CCN(C(=O)c3cccc4ncccc34)CC2)nn1,-8.088
O=C(c1ccccn1)N1CCN(C(c2ccccc2)C(F)(F)F)CC1 (stereo not given),7.794
O=C(O)C(F)(F)F.[H][C@@]12COC[C@]1(CNC(=O)c1ccccc1)CN(Cc1nccs1)C2,-8.991
O=C(O)C(F)(F)F.[H][C@@]12CN(CCOC)C[C@]1([H])[C@@H](OC)CCN2C(=O)Cc1ccsc1,1.138
COC(C)c1noc(CN(C)c2nccnc2C#N)n1 (stereo not given),-2.519
Cc1nc(CN2CC[C@@H](OCC3CC3)[C@@H]2Cc2cccnc2)cs1.O=C(O)C(F)(F)F.O=C(O)C(F)(F)F,-0.4386
CC(C)NC(=O)N1CCC2(CC(=O)N(c3ccsc3)C2)C1 (stereo not given),-6.318
CNC(=O)NC(=O)Cn1cc(-c2ccccc2)cn1,1.671
Cc1nnc(NC(=O)c2cc(S(=O)(=O)N3CCSCC3)c[nH]2)s1,-3.676
Cc1nc(C)c(C(=O)NCCn2nc3ccccn3c2=O)s1,2.413
CCC(=O)N1CCCC1c1nc(N(C)C)ncc1-c1ccc(Cl)cc1 (stereo not given),-8.184
O=C1CCCN1CCN1CCC(c2ccn[nH]2)CC1,-1.538
[H][C@@]12CS(=O)(=O)C[C@]1([H])N(Cc1ccc(F)c(C)c1)CCN2CCOC,3.015
CC[C@@H](C)[C@@H](N)C(=O)Nc1cccc(-c2cnc(N(C)CCO)nc2)c1,4.657
CCCc1nc(N2CCN(CC)CC2)c2c(n1)c(C)nn2CC,0.6543
CC(C)[C@H]1CN(Cc2ccccc2C#N)C[C@@H]1NC(=O)C1CCOCC1,-11.21 and -8.626
COCc1c(Cl)cccc1NC(=O)NCc1cccc(N(C)C)n1,-17.65
Cc1nc(C)c(CC(=O)Nc2nnc(C3CC3)s2)c(=O)[nH]1,10.45
CCNC(=O)NC(=O)CNC(C)(C)c1ccc2c(c1)OCCO2,12.15
CCc1cn[nH]c1C1CCN(c2cc(C)c3cccc(OC)c3n2)CC1,4.386
Cc1ccc(F)c(NS(=O)(=O)c2cc(C(=O)O)oc2C)c1,8.848
O=C(O)C(F)(F)F.O=C(O)C(F)(F)F.O=C(O)C(F)(F)F.[H][C@@]12CCCO[C@]1([H])[C@H](N(C)Cc1ccco1)CN(Cc1cccnc1)C2,-14.11
O=C(O)C(F)(F)F.[H][C@]12CC[C@@]3(N=C(CC)NC3=O)[C@@]1([H])CN(Cc1ccc(Cl)cc1)C2,1.829
COc1ccc(S(=O)(=O)N2CCc3ccc(F)cc32)cc1C(=O)O,-1.183
Cc1nc2n(n1)CC(NCC(=O)Nc1cc(C)on1)CC2 (stereo not given),1.697
CCC[C@@H]1CN(Cc2nnc(-c3cccc(F)c3)o2)C[C@H]1NC(C)=O,-4.57
Cn1ccc(C(=O)N2CCCC(n3cncn3)C2)cc1=O (stereo not given),-0.4624
COc1cccc(S(=O)(=O)CCN2CCCCC2)c1,4.506
CCc1ccc(C(=O)NC2CCN(c3cnn(C)c3)C2=O)o1 (stereo not given),1.153
Cc1c(C(=O)NCC2CCCO2)nnn1-c1cccc2c1CCN(C)C2 (stereo not given),-1.917
Cc1n[nH]c(=O)c2c(NC(=O)CN3CCOC(C)C3)oc(C)c12 (stereo not given),5.636 and -13.05 and -14.58
CCOCC1c2c(ncn2C)CCN1C(=O)c1cnc(C)cn1.O=C(O)C(F)(F)F (stereo not given),3.376
Cc1cc(CN(C)C(=O)c2ccc(F)cc2F)no1,14.8
Fc1ccc(N2CCOC3(COCCN(c4ncccn4)C3)C2)cc1.O=C(O)C(F)(F)F (stereo not given),7.378
CC(C)CNC(=O)CN1C=Nc2ccccc2S1(=O)=O,-1.385
c1cc(CCNc2ccc(CC3CCNC3)cn2)ccn1 (stereo not given),-3.035
Cc1cnc(CN(C)C2CCN(CC(=O)Nc3nncs3)C2)o1.O=C(O)C(F)(F)F (stereo not given),7.155
CN(C)CCCN(Cc1cnn(C)c1)Cc1ccco1.O=C(O)CC(O)(CC(=O)O)C(=O)O,5.636
CCN1CCCCC1C(=O)Nc1cccc(-c2nnc[nH]2)c1 (stereo not given),-6.389
Cc1nc(C)n(CC2CCCN(Cc3ccc4c(c3)OCCO4)C2)n1 (stereo not given),-8.021
Cc1nc(C)n(C2CCCN(C(=O)CCCc3ccccn3)C2)n1 (stereo not given),11.13
Cc1cc(C)c(CNC(=O)CCC2CCCO2)c(=O)[nH]1 (stereo not given),9.272
CC(=O)c1cc(CC(=O)NCc2c(F)cccc2F)cs1,0.3529
Cc1ccc(NS(=O)(=O)c2cc3c(c(C(=O)O)c2)OCCO3)cc1F,6.057
Cc1nc(C)n(CC2CN(CC(=O)NC3CCCC3)CCO2)n1 (stereo not given),5.4
O=C(O)C(F)(F)F.[H][C@]12CN(Cc3ccc(Cl)cc3)C[C@@]1([H])S(=O)(=O)CC[C@@H]2C(=O)NCC(C)C,-15.11
CN(Cc1nnc(C2CC2)n1C)C1CCN(CCc2cnn(C)c2)C1 (stereo not given),20.77
Cc1nn(C)c(C)c1C1CCCN1C(=O)c1cc[nH]n1 (stereo not given),-6.444
CSCC(=O)N1CCCC(c2cc(C)[nH]n2)C1 (stereo not given),-16
CCOCC1CN(S(C)(=O)=O)Cc2cnn(CC3CCOCC3)c21.O=C(O)C(F)(F)F (stereo not given),-3.244
CN1CCN(Cc2c(-c3ccco3)[nH]c3ncccc23)CC1,7.531
CC(O)CN1CCN(C(=O)c2cc3ccccc3[nH]c2=O)CC1 (stereo not given),-24.92
OC(CNc1ccc(Cl)cn1)CN1CCOCC1 (stereo not given),-3.663
COCCN1CCN(CCCS(=O)(=O)c2ccccc2)CC1C (stereo not given),-13.95
O=C(O)C(F)(F)F.[H][C@@]12CCCO[C@]1([H])[C@@H](Oc1ccccn1)CN2C(=O)N(C)C,-6.592
O=C(CN1CCCC(O)C1)NC(=O)NCc1cccs1 (stereo not given),9.808
O=C(NCCc1ccc(Cl)s1)NCc1nnc2n1CCCC2,-6.373
O=C(NCc1ccco1)N1CCCCC1c1nc(-c2ccncc2)no1 (stereo not given),2.289
CCN(CC1CN(Cc2nc(C3CC3)no2)CCO1)c1cccnn1 (stereo not given),4.167
CCn1cnnc1CNC(=O)NC(C)c1ccc(Cl)s1 (stereo not given),2.757
COc1ccnc(N2CCN(C(=O)CCc3nccs3)CC2)n1,0.5882
O=C(NCCCNC(=O)c1cccc(O)c1)NCc1ccccc1F,4.622

The values are deposited in ChEMBL (CHEMBL3988442, “University of Dundee, Small-Polar-MMV Screening Library” (2021)).